Patent US20260060957A1, “COMPOUNDS AND COMPOSITIONS USEFUL FOR TREATMENT OF PROLIFERATIVE DISEASE OR DISORDER” (University of Houston System, priority 2023, published 2026)
At least one structure is not confirmed: it was looked up by name or label, or the drawing left a doubt.

System: BE stem cells
Assay: Survival of Barrett's esophagus (BE) stem cells, high-throughput screen and dose-response
Format: cell-based, human
Conditions: screens against BE and ESO stem cells
From the text: The present example describes methods used for testing the efficacy of compounds described herein. The selective growth of stem cells of cancers, of their precursor lesions, and of normal and chronically diseased epithelial tissues is described in the references below. In brief, biopsied tissues are reduced to single cell suspensions and plated onto lawns of irradiated 3T3-J2 feeder cells in specialized StemEcho media and libraries of colonies are evident in 7-10 days. Single cell-derived clones are generated by single cell FACS sorting to 384 well plates and wells with individual colonies are expanded, analyzed by molecular genetics, and grown as discrete clones.
After 2-5 days, the cells are fixed using paraformaldehyde and the human cells are labelled with human-specific antibodies followed by fluorochrome-labelled secondary antibodies. Human cell numbers are quantified via high-throughput imaging technology (CellInsight CX7 LED, Thermo), and data analyzed by Excel.
To learn more about the relative efficacy of these IAP antagonists in a synthetic lethal combination with ponatinib, we compared their effects in dose-response assays in vitro against BE stem cells. […]

SMILES | Identification in high-throughput screens
COc1cc(Nc2c(C#N)cnc3cc(OCCCN4CCN(C)CC4)c(OC)cc23)c(Cl)cc1Cl [bosutinib] | not identified in our screens
Cc1nc(Nc2ncc(C(=O)Nc3c(C)cccc3Cl)s2)cc(N2CCN(CCO)CC2)n1 [dasatinib] | not identified in our screens
